Experimental findings from paper PMC9830505 are described below.

Chains of the proteins cited; added tags and fusions are not shown.
UniProt Q96P20: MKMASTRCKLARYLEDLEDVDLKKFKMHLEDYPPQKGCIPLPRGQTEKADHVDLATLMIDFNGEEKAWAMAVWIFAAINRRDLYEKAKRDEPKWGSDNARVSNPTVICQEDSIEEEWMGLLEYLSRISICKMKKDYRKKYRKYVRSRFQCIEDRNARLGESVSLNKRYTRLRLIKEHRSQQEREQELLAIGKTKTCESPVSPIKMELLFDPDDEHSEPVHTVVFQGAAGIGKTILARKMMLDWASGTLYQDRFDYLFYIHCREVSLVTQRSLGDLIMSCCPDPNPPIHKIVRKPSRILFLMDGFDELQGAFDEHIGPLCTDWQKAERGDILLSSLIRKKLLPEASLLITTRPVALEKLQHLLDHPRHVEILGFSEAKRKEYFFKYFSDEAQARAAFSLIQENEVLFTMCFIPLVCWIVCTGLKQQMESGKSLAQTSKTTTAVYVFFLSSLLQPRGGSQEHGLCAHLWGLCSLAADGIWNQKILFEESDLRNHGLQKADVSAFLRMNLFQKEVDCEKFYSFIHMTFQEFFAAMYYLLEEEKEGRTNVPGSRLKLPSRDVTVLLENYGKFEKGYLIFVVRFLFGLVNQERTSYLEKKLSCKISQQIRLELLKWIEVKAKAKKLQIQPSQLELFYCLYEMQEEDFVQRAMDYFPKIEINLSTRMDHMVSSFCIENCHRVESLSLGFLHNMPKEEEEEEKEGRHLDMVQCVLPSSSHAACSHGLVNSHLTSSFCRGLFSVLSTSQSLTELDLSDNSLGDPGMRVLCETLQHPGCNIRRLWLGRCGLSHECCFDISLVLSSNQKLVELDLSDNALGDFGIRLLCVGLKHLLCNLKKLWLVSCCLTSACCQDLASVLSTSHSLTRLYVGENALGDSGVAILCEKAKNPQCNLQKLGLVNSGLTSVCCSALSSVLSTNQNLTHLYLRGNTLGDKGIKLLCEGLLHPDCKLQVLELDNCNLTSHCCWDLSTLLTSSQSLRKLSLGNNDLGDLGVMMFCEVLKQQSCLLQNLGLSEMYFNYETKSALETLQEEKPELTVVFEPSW

This assay has as its target nod-like receptor protein 3 (NLRP3) (human (endogenous in HK2)) (UniProt Q96P20). The experiment in a line: co-IP; HK2 cells with or without LPS stimulation, homogenized in lysis buffer of the IP/CoIP kit on ice; lysates incubated with selected antibodies at 4 °C overnight, protein A/G agarose beads, washed three times, Western blot. (In general: Immunoblotting shows a protein as a band on a membrane.)

These are yes or no findings as the source states them, for the method shown. In cells and extracts the contact can be indirect. Some entries that bind do so weakly or less than the wild type.

B1: macrophage migration inhibitory factor (MIF) (protein, UniProt P14174 1-115)
chain: MPMFIVNTNVPRASVPDGFLSELTQQLAQATGKPPQYIAVHVVPDQLMAFGGSSEPCALCSLHSIGKIGGAQNRSYSKLLCGLLAERLRISPDRVYINYYDMNAANVGWNNSTFA
With B1, the binding entry is “binds”.
